The record followed here is paper PMC6451093.

Amino acid sequences for entries named in this document (tags omitted).
UniProt P11388: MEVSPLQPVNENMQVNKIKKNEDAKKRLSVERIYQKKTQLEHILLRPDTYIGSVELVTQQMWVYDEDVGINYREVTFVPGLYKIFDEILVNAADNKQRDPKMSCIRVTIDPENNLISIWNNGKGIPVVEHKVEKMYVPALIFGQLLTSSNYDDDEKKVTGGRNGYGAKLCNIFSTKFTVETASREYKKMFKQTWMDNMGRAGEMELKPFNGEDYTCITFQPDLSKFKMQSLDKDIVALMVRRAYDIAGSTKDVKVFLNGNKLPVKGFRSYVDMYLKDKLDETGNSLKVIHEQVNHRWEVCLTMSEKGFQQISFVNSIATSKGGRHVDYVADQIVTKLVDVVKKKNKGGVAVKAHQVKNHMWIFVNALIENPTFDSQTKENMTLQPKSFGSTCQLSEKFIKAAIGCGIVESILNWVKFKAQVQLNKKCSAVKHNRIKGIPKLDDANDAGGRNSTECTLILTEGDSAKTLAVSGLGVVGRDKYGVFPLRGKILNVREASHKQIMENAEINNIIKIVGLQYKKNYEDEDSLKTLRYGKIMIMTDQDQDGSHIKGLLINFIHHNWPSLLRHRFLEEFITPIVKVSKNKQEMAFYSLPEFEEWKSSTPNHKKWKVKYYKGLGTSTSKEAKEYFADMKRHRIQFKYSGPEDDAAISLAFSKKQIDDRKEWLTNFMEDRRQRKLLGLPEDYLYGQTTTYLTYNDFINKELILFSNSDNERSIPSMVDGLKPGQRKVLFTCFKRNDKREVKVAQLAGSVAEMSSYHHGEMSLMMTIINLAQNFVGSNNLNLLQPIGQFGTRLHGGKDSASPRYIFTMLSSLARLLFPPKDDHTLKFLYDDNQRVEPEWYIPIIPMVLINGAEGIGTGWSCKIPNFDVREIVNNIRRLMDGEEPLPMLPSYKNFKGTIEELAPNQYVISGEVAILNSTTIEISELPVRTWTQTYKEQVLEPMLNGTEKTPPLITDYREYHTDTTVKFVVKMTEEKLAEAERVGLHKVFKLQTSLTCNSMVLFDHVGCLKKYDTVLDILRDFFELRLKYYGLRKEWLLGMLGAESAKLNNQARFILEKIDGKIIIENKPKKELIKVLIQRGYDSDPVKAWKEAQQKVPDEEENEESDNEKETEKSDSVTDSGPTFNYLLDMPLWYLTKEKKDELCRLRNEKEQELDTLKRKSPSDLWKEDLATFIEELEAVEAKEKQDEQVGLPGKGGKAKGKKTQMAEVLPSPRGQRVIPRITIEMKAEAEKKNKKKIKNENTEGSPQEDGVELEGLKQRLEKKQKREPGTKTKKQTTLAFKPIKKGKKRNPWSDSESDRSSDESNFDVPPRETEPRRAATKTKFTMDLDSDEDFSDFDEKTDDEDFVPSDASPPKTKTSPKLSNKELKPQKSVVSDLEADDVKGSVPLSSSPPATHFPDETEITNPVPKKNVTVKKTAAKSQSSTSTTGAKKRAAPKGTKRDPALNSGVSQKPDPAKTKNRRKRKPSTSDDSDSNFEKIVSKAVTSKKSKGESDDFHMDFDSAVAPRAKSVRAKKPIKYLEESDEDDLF

These are yes or no findings as the source states them, for the method shown. Binding seen in cells or lysates may run through a third protein. Some entries that bind do so weakly or less than the wild type. For some of these results: Where a sequence is shown, tags or fusion partners need not be part of it.

Test [1] deals with Topo2a (human (endogenous in RPE1)) (UniProt P11388). As to the kind of experiment: proximity ligation; RPE1 cells on chambered slides, fixed, kit (Sigma); with or without 3 μM ICRF193 for 18 h; non-targeting control or siSMC6.
Test [2] deals with T1, SMC6 (human (endogenous in RPE1)) (UniProt Q96SB8).
T1 sequence: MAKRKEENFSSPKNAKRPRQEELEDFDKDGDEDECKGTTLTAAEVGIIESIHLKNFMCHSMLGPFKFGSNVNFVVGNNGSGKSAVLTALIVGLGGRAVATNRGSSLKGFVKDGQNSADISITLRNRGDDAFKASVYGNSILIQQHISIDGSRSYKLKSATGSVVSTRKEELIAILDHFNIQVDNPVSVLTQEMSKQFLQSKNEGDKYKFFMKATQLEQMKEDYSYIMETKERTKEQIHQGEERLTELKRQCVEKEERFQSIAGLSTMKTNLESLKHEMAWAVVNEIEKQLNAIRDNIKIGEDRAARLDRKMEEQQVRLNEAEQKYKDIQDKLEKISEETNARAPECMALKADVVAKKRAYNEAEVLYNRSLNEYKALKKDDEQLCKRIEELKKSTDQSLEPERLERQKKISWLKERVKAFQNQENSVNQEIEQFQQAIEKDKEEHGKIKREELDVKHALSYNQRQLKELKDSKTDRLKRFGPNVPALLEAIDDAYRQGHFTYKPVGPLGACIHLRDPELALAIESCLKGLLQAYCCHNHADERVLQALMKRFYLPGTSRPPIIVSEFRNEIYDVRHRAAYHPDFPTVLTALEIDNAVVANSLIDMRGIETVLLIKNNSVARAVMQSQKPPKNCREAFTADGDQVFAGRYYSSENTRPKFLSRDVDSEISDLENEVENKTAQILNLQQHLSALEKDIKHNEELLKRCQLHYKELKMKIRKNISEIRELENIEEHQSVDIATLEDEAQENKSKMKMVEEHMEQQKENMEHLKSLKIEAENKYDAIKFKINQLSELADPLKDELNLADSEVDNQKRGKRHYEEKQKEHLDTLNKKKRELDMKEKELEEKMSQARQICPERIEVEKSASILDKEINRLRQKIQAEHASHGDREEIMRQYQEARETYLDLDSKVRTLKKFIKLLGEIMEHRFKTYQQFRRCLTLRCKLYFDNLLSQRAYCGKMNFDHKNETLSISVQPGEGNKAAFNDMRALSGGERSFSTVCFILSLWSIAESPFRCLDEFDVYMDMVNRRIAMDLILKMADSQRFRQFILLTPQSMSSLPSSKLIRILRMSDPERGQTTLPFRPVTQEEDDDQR
Briefly: co-IP; cells lysed by sonication in RIPA buffer; Topo2a-antibodies (Millipore) or SMC6-antibodies (Abcam) on Dynabeads Protein G, 2 h at 4°C; immunoblot; with or without ICRF193.

The target of test [3] is Topo2a (human (endogenous in RPE1)) (UniProt P11388). The test is described as above.

B1: NSE2wt-GFP (enzyme, UniProt Q96MF7 1-247)
chain: MPGRSSSNSGSTGFISFSGVESALSSLKNFQACINSGMDTASSVALDLVESQTEVSSEYSMDKAMVEFATLDRQLNHYVKAVQSTINHVKEERPEKIPDLKLLVEKKFLALQSKNSDADFQNNEKFVQFKQQLKELKKQCGLQADREADGTEGVDEDIIVTQSQTNFTCPITKEEMKKPVKNKVCGHTYEEDAIVRMIESRQKRKKKAYCPQIGCSHTDIRKSDLIQDEALRRAIENHNKKRHRHSE
In the case of B1, the binding entry in test [1] is on record as “binds”.

B2: NSE2-H187A-GFP (enzyme, UniProt Q96MF7 1-247)
chain: MPGRSSSNSGSTGFISFSGVESALSSLKNFQACINSGMDTASSVALDLVESQTEVSSEYSMDKAMVEFATLDRQLNHYVKAVQSTINHVKEERPEKIPDLKLLVEKKFLALQSKNSDADFQNNEKFVQFKQQLKELKKQCGLQADREADGTEGVDEDIIVTQSQTNFTCPITKEEMKKPVKNKVCGATYEEDAIVRMIESRQKRKKKAYCPQIGCSHTDIRKSDLIQDEALRRAIENHNKKRHRHSE
In the case of B2, the binding result in test [2] is “binds”.

B3: SMC6 (protein, UniProt Q96SB8 1-1091)
chain: MAKRKEENFSSPKNAKRPRQEELEDFDKDGDEDECKGTTLTAAEVGIIESIHLKNFMCHSMLGPFKFGSNVNFVVGNNGSGKSAVLTALIVGLGGRAVATNRGSSLKGFVKDGQNSADISITLRNRGDDAFKASVYGNSILIQQHISIDGSRSYKLKSATGSVVSTRKEELIAILDHFNIQVDNPVSVLTQEMSKQFLQSKNEGDKYKFFMKATQLEQMKEDYSYIMETKERTKEQIHQGEERLTELKRQCVEKEERFQSIAGLSTMKTNLESLKHEMAWAVVNEIEKQLNAIRDNIKIGEDRAARLDRKMEEQQVRLNEAEQKYKDIQDKLEKISEETNARAPECMALKADVVAKKRAYNEAEVLYNRSLNEYKALKKDDEQLCKRIEELKKSTDQSLEPERLERQKKISWLKERVKAFQNQENSVNQEIEQFQQAIEKDKEEHGKIKREELDVKHALSYNQRQLKELKDSKTDRLKRFGPNVPALLEAIDDAYRQGHFTYKPVGPLGACIHLRDPELALAIESCLKGLLQAYCCHNHADERVLQALMKRFYLPGTSRPPIIVSEFRNEIYDVRHRAAYHPDFPTVLTALEIDNAVVANSLIDMRGIETVLLIKNNSVARAVMQSQKPPKNCREAFTADGDQVFAGRYYSSENTRPKFLSRDVDSEISDLENEVENKTAQILNLQQHLSALEKDIKHNEELLKRCQLHYKELKMKIRKNISEIRELENIEEHQSVDIATLEDEAQENKSKMKMVEEHMEQQKENMEHLKSLKIEAENKYDAIKFKINQLSELADPLKDELNLADSEVDNQKRGKRHYEEKQKEHLDTLNKKKRELDMKEKELEEKMSQARQICPERIEVEKSASILDKEINRLRQKIQAEHASHGDREEIMRQYQEARETYLDLDSKVRTLKKFIKLLGEIMEHRFKTYQQFRRCLTLRCKLYFDNLLSQRAYCGKMNFDHKNETLSISVQPGEGNKAAFNDMRALSGGERSFSTVCFILSLWSIAESPFRCLDEFDVYMDMVNRRIAMDLILKMADSQRFRQFILLTPQSMSSLPSSKLIRILRMSDPERGQTTLPFRPVTQEEDDDQR
With B3, the binding result in test [1] and in test [3] was “binds” in each case.
